The source of these data is PMC9279315.

Amino acid sequences for entries named in this document (tags omitted).
UniProt Q9EPK5: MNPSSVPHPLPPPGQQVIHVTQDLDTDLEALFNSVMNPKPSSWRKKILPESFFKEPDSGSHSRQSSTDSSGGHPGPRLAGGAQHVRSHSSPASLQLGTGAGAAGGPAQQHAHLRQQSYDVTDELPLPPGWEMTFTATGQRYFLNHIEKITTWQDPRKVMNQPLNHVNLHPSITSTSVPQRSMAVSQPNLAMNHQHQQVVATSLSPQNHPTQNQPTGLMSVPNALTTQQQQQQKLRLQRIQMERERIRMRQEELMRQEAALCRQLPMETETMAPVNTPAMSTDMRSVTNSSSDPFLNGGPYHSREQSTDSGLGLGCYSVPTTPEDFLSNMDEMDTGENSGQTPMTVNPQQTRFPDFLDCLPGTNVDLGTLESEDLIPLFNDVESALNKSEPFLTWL
UniProt P02340: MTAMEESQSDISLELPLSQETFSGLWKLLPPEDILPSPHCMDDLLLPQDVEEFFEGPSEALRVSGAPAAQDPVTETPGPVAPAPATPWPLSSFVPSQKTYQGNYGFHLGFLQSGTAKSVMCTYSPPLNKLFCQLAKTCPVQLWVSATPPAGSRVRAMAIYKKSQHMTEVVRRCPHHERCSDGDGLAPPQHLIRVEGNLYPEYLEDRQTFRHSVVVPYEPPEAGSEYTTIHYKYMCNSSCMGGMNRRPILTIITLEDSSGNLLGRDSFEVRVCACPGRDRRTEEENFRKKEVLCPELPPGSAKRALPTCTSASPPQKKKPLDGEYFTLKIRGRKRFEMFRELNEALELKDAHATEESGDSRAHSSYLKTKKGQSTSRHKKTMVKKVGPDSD

No constants are given. Whether binding was seen depends on the method and setting. In cells and extracts the contact can be indirect. Some binding calls cover weakened binding; strength is not graded here.

The assay concerns the target flag-TAZ (transcriptional co-activator with PDZ-binding domain) (UniProt Q9EPK5). Kind of assay: co-IP; HEK293T cells transfected with plasmid GFP-Trp53 or/and flag-TAZ; which partner was precipitated is not told.

Consider “GFP-Trp53 (transformation-related protein 53) (from UniProt P02340 1-390)”, for which the binding entry is “binds”.
